Laboratory results from article PMC7375240, “Covalent Inhibitors Allosterically Block the Activation of Rho Family Proteins and Suppress Cancer Cell Invasion” (Advanced Science, 2020).
These are yes or no findings as the source states them, for the method shown. Some entries that bind do so weakly or less than the wild type.

Amino acid sequences for entries named in this document (tags omitted). Residues count along the entry.
UniProt P60953: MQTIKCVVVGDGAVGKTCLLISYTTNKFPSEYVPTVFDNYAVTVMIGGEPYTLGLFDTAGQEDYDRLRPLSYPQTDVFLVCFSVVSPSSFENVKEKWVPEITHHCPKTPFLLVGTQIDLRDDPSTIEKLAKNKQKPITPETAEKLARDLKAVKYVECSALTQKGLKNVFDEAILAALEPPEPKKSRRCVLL
UniProt Q15811, residues 1227-1571: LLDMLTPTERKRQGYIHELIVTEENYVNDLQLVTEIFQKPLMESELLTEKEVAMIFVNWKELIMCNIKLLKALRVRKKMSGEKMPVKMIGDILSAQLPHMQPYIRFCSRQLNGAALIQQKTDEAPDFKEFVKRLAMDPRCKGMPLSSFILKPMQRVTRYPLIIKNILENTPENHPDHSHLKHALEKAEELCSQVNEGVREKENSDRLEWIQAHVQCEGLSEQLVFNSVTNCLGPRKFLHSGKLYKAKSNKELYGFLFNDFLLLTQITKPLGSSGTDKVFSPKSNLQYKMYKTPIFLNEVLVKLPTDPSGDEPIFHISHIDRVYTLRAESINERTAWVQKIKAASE

Biological target: Cdc42 (human) (UniProt P60953)
Assay: pull-down; (His)6-tagged GTPase held on nickel beads, 2 µg GST-tagged partner added; 20 mM HEPES pH 7.4, 150 mM NaCl, 5 mM MgCl2, 40 mM imidazole, 4 °C, 1 h; GST-tagged protein detected by anti-GST western blot; samples without effect of DC-Rhoin; both purified

intersectin1 (residues 1227-1571) (from UniProt Q15811 1227-1571) (domain or fragment)
binding: binds
